Measurements: PubChem BioAssay AID2685 (National Center for Advancing Translational Sciences (NCATS), 2010)
Some of the results follow. Further columns of the screen follow, without active or inactive calls. Compounds called inactive in the main read-out are mostly missing here. Potencies come from curve fits of mixed quality, noted in brackets.

Experiment: qHTS Assay for Lipid Storage Modulators in Drosophila S3 Cells;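 as to cell number change: cells counted by Cell Tracker Red CMTPX staining in the red channel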
Conditions: BODIPY lipid droplet fluorescence, 18-24 h; for cell number change: measured here: cell count max response, cells fed with added oleic acid
In short: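 Drosophila S3 cells got compounds at several concentrations plus oleic acid (400 uM solution). Laser-scanning cytometry with 488 nm excitation read lipid droplets at 500-530 nm and cells at 575-640 nm. Percent activity was relative to 20 uM Triacsin C.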

[1] = measured here: lipid fluorescence (Fed channel) AC50, cells fed with added oleic acid
[2] = measured here: cell number channel AC50, cells fed with added oleic acid

SMILES	cell number change [%]	AC50 [1]	AC50 [2]
O=C(CCN1C(=O)C2C3C=CC(C3)C2C1=O)Nc1ccccc1F (stereo not drawn)	2.63		
O=C1C=C(NC2CCCCC2)CCC1	23.9	0.651 µM [rising, full curve, poor fit]	
Cc1ccc(C)c(-c2ccc(=O)n(Cc3c(F)cccc3Cl)n2)c1	-14.9		
COc1ccc(N2CCN(C(=O)CCN3C(=S)NC(C)(C)CC3C)CC2)cc1 (stereo not drawn)	-2.96		
COc1ccc(OC)c(NC(=O)CN2C(=O)C(=O)N(Cc3ccccc3)C2=O)c1		4.61 µM [falling, full curve, poor fit]	
CC1CCCC(NC(=O)C2c3ccccc3C(=O)N2Cc2cccs2)C1C (stereo not drawn)	9.21	18.4 µM [falling, single point]	
O=C(COc1ccc(/C=N/NC(=O)c2ccncc2)cc1)Nc1cccc([N+](=O)[O-])c1	8.7		
CN(Cc1ccc(Cl)cc1Cl)C(=O)CCNC(=O)c1ccco1	13.9	0.411 µM [rising, full curve, poor fit]	0.13 µM [rising, full curve]
COC(=O)c1ccc(C2C(C(C)=O)=C(C)Nc3ncnn32)cc1 (stereo not drawn)	2.97		
Cc1nc([N+](=O)[O-])c(Sc2nc3ccccc3[nH]2)n1Cc1ccccc1	-14.6	18.4 µM [falling, single point]	
O=C(N/N=C/c1ccccc1O)C(=O)Nc1ccccn1	5.81		
CC1=NN(C(N)=S)C(=O)C1N=Nc1cccc2ccccc12 (stereo not drawn)	-25.8	32.6 µM [falling, single point]	
O=[N+]([O-])c1ccc(N=Nc2c(Cl)cc(O)cc2Cl)cc1	-66.8	4.61 µM [falling, full curve]	5.8 µM [falling, full curve]
O=C(NC(Nc1ccc(F)cc1)(C(F)(F)F)C(F)(F)F)c1cccnc1	-43	9.2 µM [falling, single point]	1.84 µM [falling, partial curve]
COc1ccc(C(CNC(=O)CN2C(=O)NC3(CCCC3)C2=O)N(C)C)cc1 (stereo not drawn)	12.3	20.6 µM [rising, single point]	
CCS(=O)(=O)c1nc(S(=O)(=O)c2ccc(C)cc2)c(N2CCC3(CC2)OCCO3)s1	-12.9	0.82 µM [rising, full curve]	
COc1cc(SC)ccc1C(=O)NCCc1ccccc1	27.5	29.1 µM [rising, single point]	
COc1cc(N=c2ssnc2Cl)cc(OC)c1OC	-36.5	25.9 µM [falling, partial curve, poor fit]	
Cn1c(N)c(C(=O)COC(=O)[C@H](Cc2ccccc2)N2C(=O)c3ccccc3C2=O)c(=O)n(C)c1=O	22.3	23.1 µM [rising, partial curve, poor fit]	
S=C(NCC1CCCO1)n1nnc2ccccc21 (stereo not drawn)	21.7	29.1 µM [rising, single point]	

In the list so far, two contain two or more sulfur atoms.
SMILES	cell number change [%]	AC50 [1]	AC50 [2]
CCS(=O)(=O)c1nc(S(=O)(=O)c2ccc(C)cc2)c(N2CCC3(CC2)OCCO3)s1	-12.9	0.82 µM [rising, full curve]	
COc1cc(N=c2ssnc2Cl)cc(OC)c1OC	-36.5	25.9 µM [falling, partial curve, poor fit]	

The listing continues:

SMILES	cell number change [%]	AC50 [1]	AC50 [2]
COc1cc2[nH]c(=O)n(CCC(=O)N3CCN(c4cccc(C)c4C)CC3)c(=O)c2cc1OC	14.8	29.1 µM [rising, single point]	
CCCn1c(N)c(N(CCOC)C(=O)/C=C/c2cccc(Cl)c2)c(=O)[nH]c1=O	-13.1		3.66 µM [falling, partial curve]
Cc1ccccc1NC(=S)NC(NC(=O)C(C)(C)C)C(Cl)(Cl)Cl (stereo not drawn)	-2.73	0.731 µM [falling, full curve]	
CC(C)CC(NC(N)=O)C(=O)Nc1ccc2c(c1)OCO2 (stereo not drawn)	-9.63		
Nc1nc(C(=O)N2CCOCC2)nn1S(=O)(=O)c1ccccc1	5.54	0.206 µM [falling, full curve]	
CC(=O)CCC1C2C(O)C(C(C)C)C(OC(=O)/C=C/c3ccccc3)CC12C (stereo not drawn)	8.2	0.731 µM [rising, full curve, poor fit]	
Cc1ccc(-n2ncc3c(NCc4ccccc4)ncnc32)cc1	0.963	6.51 µM [rising, single point]	
COc1ccc(N(CC(=O)NC2CCCCC2)C(=O)CCC(=O)Nc2nc(C)cs2)cc1OC	-6.96		
COc1ccc(C(=O)CC(=O)c2ccccc2O)cc1OC	36.8	1.84 µM [falling, partial curve]	32.6 µM [rising, single point]
C/C(=N/NC(=O)c1cn(-c2cccc(C)n2)cn1)c1ccc(C)cc1	12.1	5.8 µM [rising, single point]	
O=C(NCCSc1ccccc1)c1cccnc1	9.33	6.51 µM [falling, single point]	
O=C(COC(=O)c1ccco1)NCc1ccc(Cl)cc1	-19.5	20.6 µM [falling, single point]	
CCCOc1ccc(CNC(=S)Nc2ccccc2)cc1Cl	-55.1	20.6 µM [falling, single point]	25.9 µM [falling, single point]
O=C(c1cccc(S(=O)(=O)N2CCCCCC2)c1)N1CCN(c2ccccc2)CC1	4.78	0.092 µM [falling, full curve, poor fit]	0.651 µM [rising, single point]
CCOC(=O)c1c(-c2ccc(C)cc2)csc1NC(=O)CCN1CC(C)OC(C)C1 (stereo not drawn)	1.1	2.59 µM [rising, partial curve]	2.06 µM [rising, partial curve]
CC(C)(C)NC(=O)COC(=O)c1ccccc1Nc1ccc(SC(F)F)cc1	4.64		
S=C1NC2CCCCC2N1 (stereo not drawn)	-87	18.4 µM [falling, partial curve]	29.1 µM [falling, single point]
Cc1ccccc1NC(=O)C1CC(Cl)=CCC1C(=O)O (stereo not drawn)	-0.977	4.11 µM [rising, full curve, poor fit]	
Cc1ccc(S(=O)(=O)N/N=C\c2ccc3c(c2)OCO3)cc1C	20.5	20.6 µM [rising, single point]	
Cn1nc(-c2ccccc2F)c2cc(C(=O)Nc3ccc4c(c3)OCCO4)sc21	-5.34	16.4 µM [rising, single point]	
